# According to publication PMC5996148:
# Values joined by “and” are separate entries in the source; they are usually repeats but may differ in a detail not shown here. Equal entries are not always repeated. The list shows a part of the results. For some assays here: The exact form of the protein is not confirmed.
# Tests used:
# Assay in all cases: protein microarray (ProtoArray v5.0), streptavidin-Alexa Fluor 647
# Conditions in all cases: 3'-biotin; 20 mM Tris (pH 7.5), 5 mM MgCl2, 100 mM KCl, 0.1% Tween-20, A/T-rich and random oligonucleotide blockers; temperature not stated; high values mean tight binding
# ELA2B (human) = system: ELA2B (human)
# ELA3A (human) = system: ELA3A (human)
# ELA3B (human) = system: ELA3B (human)
# ELAVL3 (human) = system: ELAVL3 (human)
# ELF5 (human) = system: ELF5 (human)
# ELK3 = target: T1, ELK3 (UniProt P41970)
# T1 sequence: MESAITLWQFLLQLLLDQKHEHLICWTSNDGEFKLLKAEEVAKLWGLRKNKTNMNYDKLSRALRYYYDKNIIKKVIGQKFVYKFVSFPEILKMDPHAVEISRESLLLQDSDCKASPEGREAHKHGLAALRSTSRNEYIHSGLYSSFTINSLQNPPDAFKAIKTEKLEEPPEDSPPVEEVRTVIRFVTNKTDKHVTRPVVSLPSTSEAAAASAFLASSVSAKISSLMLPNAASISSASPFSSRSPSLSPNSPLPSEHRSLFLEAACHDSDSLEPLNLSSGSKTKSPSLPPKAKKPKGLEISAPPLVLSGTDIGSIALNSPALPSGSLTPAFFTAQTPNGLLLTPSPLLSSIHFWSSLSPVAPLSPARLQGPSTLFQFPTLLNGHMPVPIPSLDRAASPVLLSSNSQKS
# ELMOD1 (human) = system: ELMOD1 (human)
# ELMOD2 (human) = system: ELMOD2 (human)
# ELOVL2 (human) = system: ELOVL2 (human)
# EMILIN1 (human) = system: EMILIN1 (human)
# EMP3 (human) = system: EMP3 (human)
# ENO2 (human) = system: ENO2 (human)
# ENO3 (human) = system: ENO3 (human)
# ENOPH1 (human) = system: ENOPH1 (human)
# ENPP1 (human) = system: ENPP1 (human)
# ENTPD1 (human) = system: ENTPD1 (human)
# EP400NL (human) = system: EP400NL (human)
# EPHA3 (human) = system: EPHA3 (human)
# EPM2A (human) = system: EPM2A (human)
# EPM2AIP1 (human) = system: EPM2AIP1 (human)
sequence,measurement,setting,value
GGGAGGCTGAGGCAGG [G4-1 biotinylated (PQS2)],binding signal,ELA2B (human),-0.346 z-score
same,binding signal,ELA3A (human),-0.341 z-score and -0.348 z-score
same,binding signal,ELA3B (human),-0.278 z-score
same,binding signal,ELAVL3 (human),-0.301 z-score
same,binding signal,ELF5 (human),-0.273 z-score
same,binding signal,ELK3,-0.329 z-score
same,binding signal,ELMOD1 (human),-0.33 z-score
same,binding signal,ELMOD2 (human),-0.306 z-score
same,binding signal,ELOVL2 (human),-0.33 z-score
same,binding signal,EMILIN1 (human),-0.349 z-score
same,binding signal,EMP3 (human),-0.319 z-score
same,binding signal,ENO2 (human),-0.335 z-score
same,binding signal,ENO3 (human),-0.28 z-score
same,binding signal,ENOPH1 (human),-0.254 z-score
same,binding signal,ENPP1 (human),-0.304 z-score
same,binding signal,ENTPD1 (human),-0.328 z-score
same,binding signal,EP400NL (human),-0.356 z-score
same,binding signal,EPHA3 (human),-0.33 z-score
same,binding signal,EPM2A (human),-0.319 z-score
same,binding signal,EPM2AIP1 (human),-0.3 z-score

# Reprinted at random: 2 entries already listed, in no set order.
sequence,measurement,setting,value
GGGAGGCTGAGGCAGG [G4-1 biotinylated (PQS2)],binding signal,ELA2B (human),-0.346 z-score
same,binding signal,EMILIN1 (human),-0.349 z-score
